± gives the standard deviation of the averaged measurements. Most values lie at the level of the controls, where differences are scatter.
What was measured:
Experiment in all cases: level (log10 ratio to DMSO vehicle control); higher = higher biomarker level / cell amount than vehicle control
[1] = compound: O=C(O)C(F)(F)C(F)(F)C(F)(F)OC(F)(C(F)(F)F)C(F)(F)F [Perfluoro-4-isopropoxybutanoic acid] (in DMSO); conditions: 2200 nM
Experimental: (§1)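 BioMAP Diversity Plus panel of 12 human primary cell co-culture systems (3C, 4H, LPS, SAg, BT, BF4T, BE3C, CASM3C, HDF3CGF, KF3CT, MyoF, Mphg). Compounds were added 1 h before stimulation and left for 24 h (MyoF 48 h; BT 72 h for soluble read-outs or 6 d for IgG). Biomarkers were read by ELISA, cytotoxicity by SRB, PBMC viability and proliferation by Alamar Blue. Each well value was divided by the mean of 8 DMSO control wells on the same plate and log10 transformed; duplicate blinded samples were tested at 4 concentrations.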

[2] = compound: OCC(F)(F)C(F)(F)C(F)(F)C(F)(F)C(F)(F)C(F)(F)CO [1H,1H,8H,8H-Perfluorooctane-1,8-diol] (in DMSO); conditions: 2200 nM
Experimental: as §1

[3] = compound: OCCCC(F)(F)C(F)(F)C(F)(F)C(F)(F)C(F)(F)C(F)(F)C(F)(F)C(F)(F)F [3-(Perfluorooctyl)propanol] (in DMSO); conditions: 2200 nM
Experimental: as §1

[4] = compound: OCC(F)(F)OC(F)(F)C(F)(F)OC(F)(F)CO [1H,1H,8H,8H-Perfluoro-3,6-dioxaoctane-1,8-diol] (in DMSO); conditions: 2200 nM
Experimental: as §1

[5] = compound: FC(F)(F)C(F)(F)CNCC(F)(F)C(F)(F)F [Bis(1H,1H-perfluoropropyl)amine] (in DMSO); conditions: 2200 nM
Experimental: as §1

[6] = compound: O=S(=O)(O)C(F)(F)C(F)(F)C(F)(F)C(F)(F)F [Perfluorobutanesulfonic acid] (in DMSO)
Experimental: as §1

[7] = compound: O=C(O)C(F)(OC(F)(F)C(F)(OC(F)(F)C(F)(OC(F)(F)C(F)(F)C(F)(F)F)C(F)(F)F)C(F)(F)F)C(F)(F)F [Perfluoro-(2,5,8-trimethyl-3,6,9-trioxadodecanoic)acid] (in DMSO); conditions: 370 nM
Experimental: as §1

Hexafluoroglutaric acid = compound: O=C(O)C(F)(F)C(F)(F)C(F)(F)C(=O)O [Hexafluoroglutaric acid] (in DMSO)
Experimental: as §1

[8] = compound: OCC(F)(F)C(F)(F)C(F)(F)C(F)F [1H,1H,5H-Perfluoropentanol] (in DMSO); conditions: 2200 nM
Experimental: as §1

[9] = compound: O=C(O)C(F)(OC(F)(F)C(F)(F)C(F)(F)F)C(F)(F)F [Ammonium perfluoro-2-methyl-3-oxahexanoate] (in Water)
Experimental: as §1

[10] = compound: CNS(=O)(=O)C(F)(F)C(F)(F)C(F)(F)C(F)(F)C(F)(F)C(F)(F)C(F)(F)C(F)(F)F [N-Methylperfluorooctanesulfonamide] (in DMSO); conditions: 2200 nM
Experimental: as §1

[11] = compound: O=C(O)CCC(F)(F)C(F)(F)C(F)(F)F [3:3 Fluorotelomer carboxylic acid] (in DMSO); conditions: 2200 nM
Experimental: as §1

[12] = compound: C=C(C)C(=O)OCCC(F)(F)C(F)(F)C(F)(F)C(F)(F)C(F)(F)C(F)(F)F [6:2 Fluorotelomer methacrylate] (in DMSO); conditions: 2200 nM
Experimental: as §1

Perfluorohexanoic acid = compound: O=C(O)C(F)(F)C(F)(F)C(F)(F)C(F)(F)C(F)(F)F [Perfluorohexanoic acid] (in DMSO)
Experimental: as §1

[13] = compound: FC(F)(F)COC(OCC(F)(F)F)OCC(F)(F)F [tris(Trifluoroethoxy)methane] (in DMSO); conditions: 2200 nM
Experimental: as §1

[14] = compound: OCC(F)(F)C(F)(F)C(F)(F)C(F)(F)C(F)(F)C(F)(F)F [6:1 Fluorotelomer alcohol] (in DMSO); conditions: 2200 nM
Experimental: as §1

[15] = compound: FC(F)(F)C(F)(F)C(F)(F)C(F)(F)CCI [1H,1H,2H,2H-Perfluorohexyl iodide] (in DMSO); conditions: 2200 nM
Experimental: as §1

## 4H:CCL26/Eotaxin-3
[1]
  level (log10): 0.059 ± 0.023
[2]
  level (log10): 0.009 ± 0.042
[3]
  level (log10): 0.0115 ± 0.00071
[4]
  level (log10): -0.0255 ± 0.0035
[5]
  level (log10): 0.083 ± 0.027
[6]; 2200 nM
  level (log10): -0.009 ± 0.014
[6]; 6700 nM
  level (log10): -0.0025 ± 0.054
[6]; 20000 nM
  level (log10): -0.001 ± 0.051
[6]; 60000 nM
  level (log10): -0.048 ± 0.028
[7]
  level (log10): -0.0075 ± 0.012
Hexafluoroglutaric acid; 2200 nM
  level (log10): 0.024 ± 0.034
Hexafluoroglutaric acid; 6700 nM
  level (log10): 0.0155 ± 0.035
Hexafluoroglutaric acid; 20000 nM
  level (log10): 0.0155 ± 0.013
Hexafluoroglutaric acid; 60000 nM
  level (log10): 0.0235 ± 0.0078
[8]
  level (log10): 0.006 ± 0.0014
[9]; 2200 nM
  level (log10): -0.0685 ± 0.036
[9]; 6700 nM
  level (log10): -0.0615 ± 0.0021
[9]; 20000 nM
  level (log10): -0.064 ± 0.0014
[9]; 60000 nM
  level (log10): -0.118 ± 0.012
[10]
  level (log10): 0.027 ± 0.013
[11]
  level (log10): -0.011 ± 0.013
[12]
  level (log10): -0.0015 ± 0.0092
Perfluorohexanoic acid; 2200 nM
  level (log10): -0.004 ± 0.0014
Perfluorohexanoic acid; 6700 nM
  level (log10): 0.0005 ± 0.005
Perfluorohexanoic acid; 20000 nM
  level (log10): -0.004 ± 0.0099
Perfluorohexanoic acid; 60000 nM
  level (log10): -0.015 ± 0.0071
[13]
  level (log10): 0.026 ± 0.016
[14]
  level (log10): 0.0045 ± 0.023
[15]
  level (log10): 0.002 ± 0.04

## CASM3C:SRB
[1]
  level (log10): 0.008 ± 0.018
[2]
  level (log10): 0.0035 ± 0.0064
[3]
  level (log10): -0.005 ± 0.0014
[4]
  level (log10): -0.0055 ± 0.011
[5]
  level (log10): 0.0135 ± 0.019
[6]; 2200 nM
  level (log10): 0.0035 ± 0.0021
[6]; 6700 nM
  level (log10): -0.0045 ± 0.0035
[6]; 20000 nM
  level (log10): -0.0045 ± 0.0035
[6]; 60000 nM
  level (log10): -0.008 ± 0.0028
[7]
  level (log10): 0 ± 0.0042
Hexafluoroglutaric acid; 2200 nM
  level (log10): 0.002 ± 0.0099
Hexafluoroglutaric acid; 6700 nM
  level (log10): -0.001 ± 0.0028
Hexafluoroglutaric acid; 20000 nM
  level (log10): -0.0035 ± 0.0021
Hexafluoroglutaric acid; 60000 nM
  level (log10): 0.0065 ± 0.005
[8]
  level (log10): 0.002 ± 0.0014
[9]; 2200 nM
  level (log10): -0.0255 ± 0.005
[9]; 6700 nM
  level (log10): -0.007 ± 0.0057
[9]; 20000 nM
  level (log10): -0.008 ± 0.0014
[9]; 60000 nM
  level (log10): -0.0105 ± 0.0064
[10]
  level (log10): 0.0095 ± 0.00071
[11]
  level (log10): -0.006 ± 0.014
[12]
  level (log10): 0.0025 ± 0.0064
Perfluorohexanoic acid; 2200 nM
  level (log10): -0.0055 ± 0.013
Perfluorohexanoic acid; 6700 nM
  level (log10): -0.001
Perfluorohexanoic acid; 20000 nM
  level (log10): -0.013 ± 0.0028
Perfluorohexanoic acid; 60000 nM
  level (log10): -0.0005 ± 0.0021
[13]
  level (log10): -0.01 ± 0.0057
[14]
  level (log10): 0.006 ± 0.0042
[15]
  level (log10): 0.0135 ± 0.016

## HDF3CGF:CXCL9/MIG
[1]
  level (log10): 0.0065 ± 0.022
[2]
  level (log10): 0.0135 ± 0.0064
[3]
  level (log10): 0.003 ± 0.031
[4]
  level (log10): 0.0265 ± 0.012
[5]
  level (log10): -0.0015 ± 0.0021
[6]; 2200 nM
  level (log10): -0.0175 ± 0.021
[6]; 6700 nM
  level (log10): -0.01 ± 0.0085
[6]; 20000 nM
  level (log10): -0.0145 ± 0.0092
[6]; 60000 nM
  level (log10): -0.0035 ± 0.005
[7]
  level (log10): -0.0305 ± 0.05
Hexafluoroglutaric acid; 2200 nM
  level (log10): 0.007 ± 0.0057
Hexafluoroglutaric acid; 6700 nM
  level (log10): -0.013 ± 0.014
Hexafluoroglutaric acid; 20000 nM
  level (log10): -0.025 ± 0.011
Hexafluoroglutaric acid; 60000 nM
  level (log10): -0.005 ± 0.013
[8]
  level (log10): -0.011 ± 0.047
[9]; 2200 nM
  level (log10): -0.018 ± 0.02
[9]; 6700 nM
  level (log10): -0.011 ± 0.028
[9]; 20000 nM
  level (log10): -0.02 ± 0.014
[9]; 60000 nM
  level (log10): -0.016 ± 0.064
[10]
  level (log10): -0.0015 ± 0.012
[11]
  level (log10): 0.0075 ± 0.049
[12]
  level (log10): -0.0055 ± 0.013
Perfluorohexanoic acid; 2200 nM
  level (log10): -0.0265 ± 0.047
Perfluorohexanoic acid; 6700 nM
  level (log10): 0.004 ± 0.0099
Perfluorohexanoic acid; 20000 nM
  level (log10): 0.001 ± 0.0099
Perfluorohexanoic acid; 60000 nM
  level (log10): -0.019 ± 0.034
[13]
  level (log10): -0.009 ± 0.0014
[14]
  level (log10): -0.0055 ± 0.00071
[15]
  level (log10): -0.007 ± 0.023

## CASM3C:Serum Amyloid A
[1]
  level (log10): 0.0265 ± 0.096
[2]
  level (log10): 0.011 ± 0.027
[3]
  level (log10): -0.005 ± 0.042
[4]
  level (log10): -0.0105 ± 0.053
[5]
  level (log10): -0.003 ± 0.0042
[6]; 2200 nM
  level (log10): -0.049 ± 0.082
[6]; 6700 nM
  level (log10): -0.0575 ± 0.08
[6]; 20000 nM
  level (log10): -0.0795 ± 0.071
[6]; 60000 nM
  level (log10): -0.068 ± 0.055
[7]
  level (log10): 0.0215 ± 0.019
Hexafluoroglutaric acid; 2200 nM
  level (log10): -0.015 ± 0.017
Hexafluoroglutaric acid; 6700 nM
  level (log10): 0.0395 ± 0.049
Hexafluoroglutaric acid; 20000 nM
  level (log10): 0.027 ± 0.018
Hexafluoroglutaric acid; 60000 nM
  level (log10): 0.0085 ± 0.019
[8]
  level (log10): -0.035 ± 0.016
[9]; 2200 nM
  level (log10): -0.066 ± 0.03
[9]; 6700 nM
  level (log10): -0.031 ± 0.04
[9]; 20000 nM
  level (log10): -0.034 ± 0.03
[9]; 60000 nM
  level (log10): -0.0005 ± 0.049
[10]
  level (log10): 0.045 ± 0.064
[11]
  level (log10): -0.002 ± 0.059
[12]
  level (log10): -0.0125 ± 0.0092
Perfluorohexanoic acid; 2200 nM
  level (log10): -0.0055 ± 0.018
Perfluorohexanoic acid; 6700 nM
  level (log10): 0.0315 ± 0.012
Perfluorohexanoic acid; 20000 nM
  level (log10): -0.003 ± 0.0028
Perfluorohexanoic acid; 60000 nM
  level (log10): 0.01 ± 0.047
[13]
  level (log10): -0.0065 ± 0.1
[14]
  level (log10): -0.006 ± 0.011
[15]
  level (log10): 0.028 ± 0.062
